# Source: publication PMC5539292, “Calcium Ion Induced Structural Changes Promote Dimerization of Secretagogin, Which Is Required for Its Insulin Secretory Function” (Scientific Reports, 2017)
# No constants are given. Whether binding was seen depends on the method and setting. Some entries that bind do so weakly or less than the wild type.
# Biological target: hSCGN ΔEF1 (a.a.: Δ1-52) overexpressed in HeLa cells (pcDNA3.1) (human) (UniProt O76038)
# Test: non-reducing SDS-PAGE and Western blot of cell lysates; HeLa cells overexpressing hSCGN, treated with H2O2 (with or without 2 μM ionomycin); anti-SCGN antibody
binder,measurement,value
"purified hSCGN ΔEF1 (deletion of 1-52 a.a.) (domain or fragment, human, UniProt O76038 53-276, looked up, human secretagogin (SCGN) without residues 1-52 (EF1); The methods describe ΔEF1 only as a pcDNA3.1 construct; also called ΔEF1 protein; recombinant ΔEF1; source: purified recombinant protein) TVMKANLHKVKQQFMTTQDASKDGRIRMKELAGMFLSEDENFLLLFRRENPLDSSVEFMQIWRKYDADSSGFISAAELRNFLRDLFLHHKKAISEAKLEEYTGTMMKIFDRNKDGRLDLNDLARILALQENFLLQFKMDACSTEERKRDFEKIFAYYDVSKTGALEGPEVDGFVKDMMELVQPSISGVDLDKFREILLRHCDVNKDGKIQKSELALCLGLKINP",binding,binds
